Some of the results follow.
Legend:
Assay in all cases: log2 fold change, soluble protein after heating vs DMSO (PISA); higher = thermal stabilisation; K562 lysate, 10 uM; active = over 0.2 and 3.5 SD of the protein, either way, in both replicates (recomputed)
nilotinib = compound: Cc1cn(-c2cc(NC(=O)c3ccc(C)c(Nc4nccc(-c5cccnc5)n4)c3)cc(C(F)(F)F)c2)cn1 [nilotinib]
In short: (§1)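 Thermal stability, expressed as log-two fold change relative to solvent controls, is given from duplicates. Crude K562 extract in PBS pH 7.4 with 1 mM MgCl2, at 1 mg/mL protein, was treated with 10 μM compound for 30 min and heated in aliquots for 3 min across 48°C-58°C. After pooling, adjustment to 0.5% NP-40 at 4°C and centrifugation at 21,000xg for 90 min, supernatant protein was measured by TMTpro 16plex LC-MS/MS with channel sums equalised.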

Amino acid sequences for entries named in this document (tags omitted). A change or cut given only in a name is not applied to a line headed by its entry.
UniProt Q9H8P0: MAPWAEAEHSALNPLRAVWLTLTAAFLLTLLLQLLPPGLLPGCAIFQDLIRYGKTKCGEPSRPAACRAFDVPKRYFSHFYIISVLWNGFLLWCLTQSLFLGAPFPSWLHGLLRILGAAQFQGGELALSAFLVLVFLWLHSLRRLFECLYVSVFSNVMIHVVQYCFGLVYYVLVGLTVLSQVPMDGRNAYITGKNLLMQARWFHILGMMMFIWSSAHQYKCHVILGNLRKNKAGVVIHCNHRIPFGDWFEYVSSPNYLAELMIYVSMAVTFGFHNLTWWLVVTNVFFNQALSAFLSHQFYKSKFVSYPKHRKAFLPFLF
UniProt Q9C004: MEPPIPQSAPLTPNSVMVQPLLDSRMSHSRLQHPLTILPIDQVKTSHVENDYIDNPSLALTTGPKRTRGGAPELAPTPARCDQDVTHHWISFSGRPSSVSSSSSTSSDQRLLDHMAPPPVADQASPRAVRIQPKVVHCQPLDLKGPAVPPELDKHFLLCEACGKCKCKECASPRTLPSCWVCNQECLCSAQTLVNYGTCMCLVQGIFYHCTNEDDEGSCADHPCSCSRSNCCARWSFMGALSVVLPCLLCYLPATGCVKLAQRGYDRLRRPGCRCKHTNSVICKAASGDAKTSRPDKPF
UniProt Q8N3U4: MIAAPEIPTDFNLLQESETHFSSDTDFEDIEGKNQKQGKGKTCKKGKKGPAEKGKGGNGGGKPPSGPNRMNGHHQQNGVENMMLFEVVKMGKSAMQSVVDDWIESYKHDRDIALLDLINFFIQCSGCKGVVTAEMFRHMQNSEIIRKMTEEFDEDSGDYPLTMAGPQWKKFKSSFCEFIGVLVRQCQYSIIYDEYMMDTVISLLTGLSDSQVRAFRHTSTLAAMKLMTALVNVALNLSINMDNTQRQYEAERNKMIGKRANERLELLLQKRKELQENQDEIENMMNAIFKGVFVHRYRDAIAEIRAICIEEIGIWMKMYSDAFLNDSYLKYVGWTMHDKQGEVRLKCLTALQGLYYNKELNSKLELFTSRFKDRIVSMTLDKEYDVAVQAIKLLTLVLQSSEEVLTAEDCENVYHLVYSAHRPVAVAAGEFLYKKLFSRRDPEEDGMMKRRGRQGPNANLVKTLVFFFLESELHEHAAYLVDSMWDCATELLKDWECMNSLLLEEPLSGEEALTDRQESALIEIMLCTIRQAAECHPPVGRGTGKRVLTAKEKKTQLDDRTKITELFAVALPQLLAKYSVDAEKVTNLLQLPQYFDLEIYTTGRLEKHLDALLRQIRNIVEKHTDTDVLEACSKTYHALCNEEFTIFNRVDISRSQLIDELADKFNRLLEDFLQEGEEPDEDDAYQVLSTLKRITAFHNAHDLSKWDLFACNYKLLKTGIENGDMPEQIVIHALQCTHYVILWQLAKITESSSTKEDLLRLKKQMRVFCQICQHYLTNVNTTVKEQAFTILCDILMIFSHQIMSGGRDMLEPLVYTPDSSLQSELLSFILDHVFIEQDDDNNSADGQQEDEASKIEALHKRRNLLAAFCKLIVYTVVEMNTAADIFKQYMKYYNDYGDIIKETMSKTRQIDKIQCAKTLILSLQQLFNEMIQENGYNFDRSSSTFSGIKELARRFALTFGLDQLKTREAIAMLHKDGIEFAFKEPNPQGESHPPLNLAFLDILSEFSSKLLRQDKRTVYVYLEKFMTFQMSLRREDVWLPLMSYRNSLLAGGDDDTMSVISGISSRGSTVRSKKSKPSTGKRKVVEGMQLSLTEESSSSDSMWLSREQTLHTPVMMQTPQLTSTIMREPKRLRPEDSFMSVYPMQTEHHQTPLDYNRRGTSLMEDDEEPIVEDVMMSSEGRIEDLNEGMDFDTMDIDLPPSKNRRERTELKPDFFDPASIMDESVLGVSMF
UniProt P42226: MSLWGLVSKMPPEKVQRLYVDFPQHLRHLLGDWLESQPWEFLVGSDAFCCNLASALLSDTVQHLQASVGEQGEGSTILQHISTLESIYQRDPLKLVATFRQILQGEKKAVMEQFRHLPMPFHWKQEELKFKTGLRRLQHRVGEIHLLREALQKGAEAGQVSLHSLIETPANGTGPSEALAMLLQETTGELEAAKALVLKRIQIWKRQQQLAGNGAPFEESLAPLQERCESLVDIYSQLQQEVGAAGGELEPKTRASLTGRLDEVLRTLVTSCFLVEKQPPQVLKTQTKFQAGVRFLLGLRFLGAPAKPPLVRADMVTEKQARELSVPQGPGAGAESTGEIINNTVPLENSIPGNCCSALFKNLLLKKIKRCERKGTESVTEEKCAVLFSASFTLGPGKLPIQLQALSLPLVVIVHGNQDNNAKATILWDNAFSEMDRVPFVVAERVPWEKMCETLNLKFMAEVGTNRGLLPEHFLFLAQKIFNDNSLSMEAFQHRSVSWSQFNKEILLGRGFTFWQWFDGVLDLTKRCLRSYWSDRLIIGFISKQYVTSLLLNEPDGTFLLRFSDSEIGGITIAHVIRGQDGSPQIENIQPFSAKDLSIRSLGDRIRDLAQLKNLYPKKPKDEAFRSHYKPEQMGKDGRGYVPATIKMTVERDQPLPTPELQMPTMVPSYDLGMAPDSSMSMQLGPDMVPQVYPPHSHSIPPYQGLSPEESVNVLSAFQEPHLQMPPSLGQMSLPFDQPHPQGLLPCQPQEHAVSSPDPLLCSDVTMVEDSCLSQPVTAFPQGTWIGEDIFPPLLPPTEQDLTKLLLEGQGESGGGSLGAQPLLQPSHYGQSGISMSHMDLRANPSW
UniProt O15270: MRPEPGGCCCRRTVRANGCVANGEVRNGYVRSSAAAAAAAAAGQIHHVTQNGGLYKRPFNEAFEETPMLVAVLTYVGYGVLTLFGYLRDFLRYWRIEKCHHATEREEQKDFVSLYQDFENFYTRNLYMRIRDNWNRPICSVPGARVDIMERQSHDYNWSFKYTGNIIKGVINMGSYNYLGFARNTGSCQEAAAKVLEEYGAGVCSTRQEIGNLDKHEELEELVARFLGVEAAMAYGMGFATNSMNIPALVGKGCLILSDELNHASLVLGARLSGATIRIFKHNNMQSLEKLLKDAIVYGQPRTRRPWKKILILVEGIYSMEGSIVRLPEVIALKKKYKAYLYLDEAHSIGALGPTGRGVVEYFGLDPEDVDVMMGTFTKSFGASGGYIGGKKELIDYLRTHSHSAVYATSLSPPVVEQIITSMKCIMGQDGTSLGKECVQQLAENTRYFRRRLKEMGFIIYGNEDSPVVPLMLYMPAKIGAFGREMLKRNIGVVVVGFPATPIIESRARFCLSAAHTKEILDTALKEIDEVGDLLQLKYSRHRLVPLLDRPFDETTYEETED
UniProt P61011: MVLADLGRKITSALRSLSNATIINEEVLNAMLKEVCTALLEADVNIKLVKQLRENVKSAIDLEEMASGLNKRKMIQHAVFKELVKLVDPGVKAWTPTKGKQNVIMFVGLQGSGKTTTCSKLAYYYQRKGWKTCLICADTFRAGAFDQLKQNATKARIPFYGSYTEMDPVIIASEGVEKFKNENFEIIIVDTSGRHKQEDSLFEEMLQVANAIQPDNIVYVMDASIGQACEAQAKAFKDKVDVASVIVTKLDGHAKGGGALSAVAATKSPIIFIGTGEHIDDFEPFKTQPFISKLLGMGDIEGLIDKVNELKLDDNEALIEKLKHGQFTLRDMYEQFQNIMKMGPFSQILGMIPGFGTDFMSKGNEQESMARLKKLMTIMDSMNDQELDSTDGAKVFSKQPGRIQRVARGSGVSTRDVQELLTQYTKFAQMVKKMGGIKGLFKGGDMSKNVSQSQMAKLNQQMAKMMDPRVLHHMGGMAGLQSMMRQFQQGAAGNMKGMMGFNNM
UniProt Q9UQ35: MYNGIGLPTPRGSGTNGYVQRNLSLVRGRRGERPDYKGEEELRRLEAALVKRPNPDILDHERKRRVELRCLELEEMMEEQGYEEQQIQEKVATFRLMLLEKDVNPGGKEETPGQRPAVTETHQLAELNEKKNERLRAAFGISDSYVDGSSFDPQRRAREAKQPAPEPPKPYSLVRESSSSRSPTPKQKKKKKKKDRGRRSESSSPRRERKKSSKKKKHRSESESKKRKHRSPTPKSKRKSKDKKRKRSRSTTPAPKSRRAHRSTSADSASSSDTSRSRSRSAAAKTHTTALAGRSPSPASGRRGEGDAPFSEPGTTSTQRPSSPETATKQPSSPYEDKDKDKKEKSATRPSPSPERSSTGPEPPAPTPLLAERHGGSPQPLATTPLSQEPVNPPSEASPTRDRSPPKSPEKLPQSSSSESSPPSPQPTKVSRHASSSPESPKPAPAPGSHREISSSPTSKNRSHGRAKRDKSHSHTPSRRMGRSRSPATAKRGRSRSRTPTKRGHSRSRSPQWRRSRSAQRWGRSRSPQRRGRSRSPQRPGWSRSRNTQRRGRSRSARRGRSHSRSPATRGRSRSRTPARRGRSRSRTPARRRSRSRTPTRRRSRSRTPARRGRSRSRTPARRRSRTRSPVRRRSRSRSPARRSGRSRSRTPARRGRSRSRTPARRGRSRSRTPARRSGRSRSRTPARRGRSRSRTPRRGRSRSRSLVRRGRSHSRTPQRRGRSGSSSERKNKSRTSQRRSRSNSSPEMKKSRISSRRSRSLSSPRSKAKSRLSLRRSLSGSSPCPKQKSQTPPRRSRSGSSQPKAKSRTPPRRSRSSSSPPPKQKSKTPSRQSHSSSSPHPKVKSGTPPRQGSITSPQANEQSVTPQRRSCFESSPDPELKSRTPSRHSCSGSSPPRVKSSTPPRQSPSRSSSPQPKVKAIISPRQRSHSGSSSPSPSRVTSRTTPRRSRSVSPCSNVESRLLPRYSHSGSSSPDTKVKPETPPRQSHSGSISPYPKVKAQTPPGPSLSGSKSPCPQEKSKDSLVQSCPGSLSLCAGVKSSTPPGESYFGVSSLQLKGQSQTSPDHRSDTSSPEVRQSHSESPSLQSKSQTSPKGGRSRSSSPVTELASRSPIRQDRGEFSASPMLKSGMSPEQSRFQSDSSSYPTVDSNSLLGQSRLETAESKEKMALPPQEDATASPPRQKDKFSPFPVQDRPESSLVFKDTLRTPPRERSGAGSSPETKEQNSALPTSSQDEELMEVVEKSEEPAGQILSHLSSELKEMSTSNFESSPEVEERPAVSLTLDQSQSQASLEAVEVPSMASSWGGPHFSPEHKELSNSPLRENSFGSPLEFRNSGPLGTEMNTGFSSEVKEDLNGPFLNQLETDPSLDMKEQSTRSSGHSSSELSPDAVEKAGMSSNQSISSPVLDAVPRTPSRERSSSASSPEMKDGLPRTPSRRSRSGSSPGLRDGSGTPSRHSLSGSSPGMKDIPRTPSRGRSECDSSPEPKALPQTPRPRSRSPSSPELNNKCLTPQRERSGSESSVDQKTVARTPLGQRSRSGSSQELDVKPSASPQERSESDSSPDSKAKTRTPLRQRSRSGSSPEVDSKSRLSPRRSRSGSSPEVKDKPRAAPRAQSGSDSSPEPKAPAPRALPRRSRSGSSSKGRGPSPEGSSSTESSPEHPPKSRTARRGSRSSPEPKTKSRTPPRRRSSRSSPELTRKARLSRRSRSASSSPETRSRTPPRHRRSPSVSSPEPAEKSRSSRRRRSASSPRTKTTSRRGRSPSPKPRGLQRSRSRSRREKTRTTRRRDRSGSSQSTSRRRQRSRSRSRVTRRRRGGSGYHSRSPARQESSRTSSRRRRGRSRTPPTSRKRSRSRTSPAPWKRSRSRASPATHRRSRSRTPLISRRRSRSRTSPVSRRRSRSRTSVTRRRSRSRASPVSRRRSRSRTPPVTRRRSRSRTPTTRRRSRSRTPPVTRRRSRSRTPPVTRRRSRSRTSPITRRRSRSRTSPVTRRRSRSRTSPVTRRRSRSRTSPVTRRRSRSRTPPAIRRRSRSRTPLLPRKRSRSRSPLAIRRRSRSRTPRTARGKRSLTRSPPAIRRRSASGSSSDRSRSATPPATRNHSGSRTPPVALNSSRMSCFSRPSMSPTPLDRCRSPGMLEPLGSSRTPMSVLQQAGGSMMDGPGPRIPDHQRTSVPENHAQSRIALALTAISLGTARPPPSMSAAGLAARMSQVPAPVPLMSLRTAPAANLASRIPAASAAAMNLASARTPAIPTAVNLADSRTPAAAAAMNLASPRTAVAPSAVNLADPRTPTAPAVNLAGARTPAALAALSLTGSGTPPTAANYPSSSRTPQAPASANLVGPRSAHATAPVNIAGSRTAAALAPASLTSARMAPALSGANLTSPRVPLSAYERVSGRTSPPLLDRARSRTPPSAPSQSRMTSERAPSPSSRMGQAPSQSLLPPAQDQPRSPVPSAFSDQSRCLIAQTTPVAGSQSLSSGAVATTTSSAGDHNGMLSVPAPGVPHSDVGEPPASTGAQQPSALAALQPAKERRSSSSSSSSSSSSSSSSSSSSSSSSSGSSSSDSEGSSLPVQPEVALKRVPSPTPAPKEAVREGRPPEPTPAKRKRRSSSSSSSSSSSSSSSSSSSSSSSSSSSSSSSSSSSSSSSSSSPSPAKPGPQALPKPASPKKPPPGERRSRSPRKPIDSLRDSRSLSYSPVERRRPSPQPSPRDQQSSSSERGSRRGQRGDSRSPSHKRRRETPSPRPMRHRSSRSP

[1] = compound: Cc1nc(Nc2n[nH]c3c2CN(C(=O)N[C@H](CN(C)C)c2ccccc2)C3(C)C)c2sccc2n1
In short: as §1

dasatinib = compound: Cc1nc(Nc2ncc(C(=O)Nc3c(C)cccc3Cl)s2)cc(N2CCN(CCO)CC2)n1 [dasatinib]
In short: as §1

[2] = compound: Cc1ncc(-c2ccnc(Nc3ccc(S(C)(=O)=O)cc3)n2)n1C(C)C
In short: as §1

[3] = compound: Cn1cc(-c2ccc3c(c2)CCN3C(=O)Cc2cccc(C(F)(F)F)c2)c2c(N)ncnc21
In short: as §1

quisinostat = compound: Cn1cc(CNCC2CCN(c3ncc(C(=O)NO)cn3)CC2)c2ccccc21 [quisinostat]
In short: as §1

tipifarnib = compound: Cn1cncc1[C@@](N)(c1ccc(Cl)cc1)c1ccc2c(c1)c(-c1cccc(Cl)c1)cc(=O)n2C [tipifarnib]
In short: as §1

[4] = compound: NC(=O)Nc1cc(-c2cccc(F)c2)sc1C(=O)N[C@H]1CCCNC1
In short: as §1

[5] = compound: NC(=O)c1cnc(N[C@@H]2CCCC[C@@H]2N)nc1Nc1cccc(-n2nccn2)c1
In short: as §1

[6] = compound: NC1(c2ccc(-c3nc4ccn5c(=O)[nH]nc5c4cc3-c3ccccc3)cc2)CCC1
In short: as §1

[7] = compound: NCC(=O)Nc1ccc(-n2nc(C(F)(F)F)cc2-c2ccc3c(ccc4ccccc43)c2)cc1
In short: as §1

vorinostat = compound: O=C(CCCCCCC(=O)Nc1ccccc1)NO [vorinostat]
In short: as §1

silmitasertib = compound: O=C(O)c1ccc2c(c1)nc(Nc1cccc(Cl)c1)c1ccncc12 [silmitasertib]
In short: as §1

[8] = compound: O=C1NC(=O)C(c2cnc3ccccn23)=C1c1cn2c3c(cc(F)cc13)CN(C(=O)N1CCCCC1)CC2
In short: as §1

entospletinib = compound: c1cn2cc(-c3ccc4cn[nH]c4c3)nc(Nc3ccc(N4CCOCC4)cc3)c2n1 [entospletinib]
In short: as §1

Measured: log2 fold change

SRD5A3 (UniProt Q9H8P0)
inactive: nilotinib -0.132 | [1] -0.23 | dasatinib -0.118 | [2] 0.044 | [3] 0.219 | quisinostat 0.372 | tipifarnib -0.062 | [4] -0.086 | [5] -0.223 | [6] 0.023 | [7] -0.177 | vorinostat 0.165 | silmitasertib 0.179 | [8] -0.205 | entospletinib -0.002

SPRY4 (UniProt Q9C004)
inactive: nilotinib 0.028 | [1] -0.041 | dasatinib 0.01 | [2] 0.05 | [3] -0.014 | quisinostat -0.007 | tipifarnib -0.017 | [4] 0.022 | [5] 0.014 | [6] 0.012 | [7] -0.034 | vorinostat 0.008 | silmitasertib 0 | [8] -0.019 | entospletinib -0.059

SPATA5L1 (UniProt Q9BVQ7)
active: vorinostat -0.408
inactive: nilotinib -0.012 | [1] -0.003 | dasatinib -0.115 | [2] 0.016 | [3] 0.093 | quisinostat -0.059 | tipifarnib 0.028 | [4] 0.047 | [5] 0.039 | [6] -0.092 | [7] 0.029 | silmitasertib 0.138 | [8] 0.035 | entospletinib -0.021

STAG2 isoform 2 (UniProt Q8N3U4)
inactive: nilotinib -0.036 | [1] 0.026 | dasatinib -0.018 | [2] 0.002 | [3] 0.024 | quisinostat -0.009 | tipifarnib 0.007 | [4] -0.007 | [5] -0.001 | [6] -0.023 | [7] -0.008 | vorinostat 0.043 | silmitasertib -0.002 | [8] -0.032 | entospletinib 0

STAT6 (UniProt P42226)
inactive: nilotinib 0 | [1] 0.026 | dasatinib -0.007 | [2] -0.09 | [3] -0.058 | quisinostat -0.022 | tipifarnib -0.025 | [4] 0.005 | [5] 0.023 | [6] 0.008 | [7] -0.042 | vorinostat -0.142 | silmitasertib -0.001 | [8] -0.028 | entospletinib 0.003

Two records drawn at random from those above:
SPRY4 (UniProt Q9C004)
inactive: nilotinib 0.028 | [1] -0.041 | dasatinib 0.01 | [2] 0.05 | [3] -0.014 | quisinostat -0.007 | tipifarnib -0.017 | [4] 0.022 | [5] 0.014 | [6] 0.012 | [7] -0.034 | vorinostat 0.008 | silmitasertib 0 | [8] -0.019 | entospletinib -0.059

SRD5A3 (UniProt Q9H8P0)
inactive: nilotinib -0.132 | [1] -0.23 | dasatinib -0.118 | [2] 0.044 | [3] 0.219 | quisinostat 0.372 | tipifarnib -0.062 | [4] -0.086 | [5] -0.223 | [6] 0.023 | [7] -0.177 | vorinostat 0.165 | silmitasertib 0.179 | [8] -0.205 | entospletinib -0.002

(list continues)

SRSF10 (UniProt O75494)
inactive: nilotinib -0.233 | [1] 0.001 | dasatinib 0.025 | [2] -0.019 | [3] 0.044 | quisinostat 0.003 | tipifarnib -0.051 | [4] -0.045 | [5] -0.039 | [6] 0.026 | [7] 0.103 | vorinostat 0.155 | silmitasertib -0.049 | [8] 0.004 | entospletinib -0.038

STAM2 (UniProt O75886)
inactive: nilotinib -0.008 | [1] 0.002 | dasatinib 0.02 | [2] 0.019 | [3] -0.03 | quisinostat 0.001 | tipifarnib 0.021 | [4] 0.012 | [5] 0.012 | [6] -0.003 | [7] 0.001 | vorinostat 0.041 | silmitasertib -0.019 | [8] -0.018 | entospletinib 0.002

SSR3 isoform 2 (UniProt Q9UNL2)
inactive: nilotinib 0.009 | [1] -0.045 | dasatinib 0.043 | [2] -0.014 | [3] -0.044 | quisinostat -0.021 | tipifarnib 0.038 | [4] 0.029 | [5] 0.01 | [6] -0.029 | [7] -0.252 | vorinostat 0.078 | silmitasertib 0.04 | [8] -0.062 | entospletinib 0.013

SRRT (UniProt Q9BXP5)
inactive: nilotinib -0.013 | [1] -0.028 | dasatinib -0.087 | [2] -0.005 | [3] 0.026 | quisinostat -0.058 | tipifarnib 0.013 | [4] 0.058 | [5] 0.016 | [6] -0.023 | [7] -0.036 | silmitasertib 0.044 | [8] -0.008 | entospletinib 0.032
active: vorinostat -0.373

SPTLC2 (UniProt O15270)
inactive: nilotinib 0.027 | [1] -0.01 | dasatinib -0.007 | [2] 0.045 | [3] 0.045 | quisinostat -0.066 | tipifarnib -0.06 | [4] -0.02 | [5] 0.008 | [6] -0.001 | [7] -0.004 | vorinostat 0.158 | silmitasertib -0.026 | [8] 0.002 | entospletinib 0.007

SRXN1 (UniProt Q9BYN0)
inactive: nilotinib -0.055 | [1] 0.041 | dasatinib -0.002 | [2] 0.035 | [3] -0.067 | quisinostat -0.052 | tipifarnib -0.064 | [4] 0.074 | [5] 0.044 | [6] 0.026 | [7] -0.061 | vorinostat -0.11 | silmitasertib 0.028 | [8] -0.026 | entospletinib 0.014

SPIN1 (UniProt Q9Y657)
inactive: nilotinib -0.063 | [1] 0.103 | dasatinib 0.035 | [2] -0.115 | [3] -0.037 | quisinostat -0.063 | tipifarnib -0.101 | [4] -0.13 | [5] -0.135 | [6] -0.019 | [7] -0.021 | vorinostat 0.013 | silmitasertib -0.013 | [8] 0.025 | entospletinib -0.076

SRSF4 (UniProt Q08170)
inactive: nilotinib 0.003 | [1] -0.001 | dasatinib -0.003 | [2] 0.003 | [3] 0.049 | quisinostat 0.036 | tipifarnib 0.03 | [4] -0.062 | [5] 0.025 | [6] 0.011 | [7] -0.046 | vorinostat -0.024 | silmitasertib 0.02 | [8] -0.085 | entospletinib -0.018

SRP54 (UniProt P61011)
inactive: nilotinib 0.039 | [1] 0.006 | dasatinib -0.021 | [2] 0 | [3] 0.034 | quisinostat 0.048 | tipifarnib -0.047 | [4] -0.001 | [5] -0.013 | [6] -0.015 | [7] 0.003 | silmitasertib 0.008 | [8] 0.021 | entospletinib -0.004
active: vorinostat -0.241

SRRM2 (UniProt Q9UQ35)
inactive: nilotinib -0.01 | [1] 0.028 | dasatinib 0.012 | [2] -0.004 | [3] 0 | quisinostat -0.018 | tipifarnib 0.002 | [4] -0.052 | [5] 0.042 | [6] 0.019 | [7] 0.016 | vorinostat 0.027 | silmitasertib -0.07 | [8] 0.004 | entospletinib -0.017

STARD10 (UniProt Q9Y365)
inactive: nilotinib 0.004 | [1] -0.006 | dasatinib 0.015 | [2] 0.033 | [3] -0.002 | quisinostat 0.041 | tipifarnib -0.092 | [4] 0.035 | [5] 0.035 | [6] 0.014 | [7] -0.037 | vorinostat 0.148 | silmitasertib -0.003 | [8] -0.032 | entospletinib 0.036

SRCAP (UniProt Q6ZRS2)
inactive: nilotinib 0.021 | [1] 0.049 | dasatinib -0.022 | [2] -0.085 | [3] 0.038 | quisinostat 0.025 | tipifarnib 0.026 | [4] 0.038 | [5] 0.002 | [6] -0.025 | [7] -0.013 | vorinostat -0.173 | silmitasertib 0.037 | [8] -0.024 | entospletinib -0.015

STAM (UniProt Q92783)
inactive: nilotinib 0.003 | [1] 0.018 | dasatinib 0.035 | [2] -0.013 | [3] 0 | quisinostat 0.036 | tipifarnib 0.017 | [4] -0.008 | [5] 0.038 | [6] 0.009 | [7] -0.002 | vorinostat 0.12 | silmitasertib -0.027 | [8] -0.029 | entospletinib 0.003

ST7 (UniProt Q9NRC1)
inactive: nilotinib -0.081 | [1] -0.012 | dasatinib 0 | [2] 0.074 | [3] 0.005 | quisinostat 0.004 | tipifarnib 0.039 | [4] 0.031 | [5] -0.035 | [6] 0.05 | [7] -0.002 | vorinostat -0.077 | silmitasertib 0.001 | [8] 0.033 | entospletinib 0.071

SPEN (UniProt Q96T58)
inactive: nilotinib -0.034 | [1] -0.099 | dasatinib -0.066 | [2] 0.098 | [3] 0.088 | quisinostat -0.027 | tipifarnib -0.055 | [4] -0.049 | [5] -0.029 | [6] -0.012 | [7] 0.078 | vorinostat -0.153 | silmitasertib 0.039 | [8] 0.047 | entospletinib -0.017

SSB (UniProt P05455)
inactive: nilotinib -0.013 | [1] -0.014 | dasatinib -0.008 | [2] 0.006 | [3] -0.018 | quisinostat 0.099 | tipifarnib 0.022 | [4] 0.001 | [5] -0.013 | [6] 0.012 | [7] 0.027 | vorinostat 0.081 | silmitasertib 0.01 | [8] 0.032 | entospletinib 0.005
